# Laboratory results published in PubChem BioAssay AID504834 (National Center for Advancing Translational Sciences (NCATS), 2011).
# Hit rate of the full screen: of about 320,000 compounds, about 22,000 (6.9%) were called active. This list was built around the results that the source calls inconclusive (neither active nor inactive); the mix of calls is not that of the screen. Calls follow the shape of the dose curve; as a rule, active = well fitted inhibition curve with a large enough effect; inconclusive = small, poorly fitted or top-dose-only effect, or another doubt; inactive = no such curve, though single readings can be large or run the other way. Potencies beside an inconclusive call are fits to weak or partial responses and may not hold up.
# Test: Primary qHTS for delayed death inhibitors of the malarial parasite plastid, 96 hour incubation
# Conditions: P. falciparum luciferase reporter growth; series mostly up to 28.7 µM; activity change, negative = inhibition: at the top concentration
# Method in brief: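 Luminescence readout: decreased luciferase signal marks inhibited growth of reporter-expressing P. falciparum in infected red cells (2% hematocrit, 0.05% parasitemia final), exposed to compound two generations (96 h, 37 C, 5% CO2).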
# % is scaled to controls: 0 for no effect and ±100 for the full control effect; potency is read from the fitted curve at half-maximal effect.
Structure (SMILES),Potency,"activity change, negative = inhibition"
CC(=O)c1ccc(NC(=O)c2ccc(NC(=O)c3ccco3)cc2)cc1,"inconclusive: 18.5 µM [inhibitor, single point]",–
CCC1(c2ccccc2)NC(=S)N(c2ccc(C)cc2)N1 (stereo not given),"inconclusive: 14.7 µM [inhibitor, single point]",–
CCC(Sc1nc(C)cc(C)n1)C(=O)Nc1cc(C)on1 (stereo not given),"inconclusive: 13.1 µM [inhibitor, single point]",–
CCN(CC)c1ccc(-c2nn3c(-c4n[nH]c5c4CCC5)nnc3s2)cc1,–,inactive: 51.6%
CN(C)CCNC(=O)C(=O)NCC1OCCCN1S(=O)(=O)c1cccs1 (stereo not given),–,inactive: -2.2%
COc1cc(C2NC(=O)NC(c3ccccc3)=C2C(C)=O)c(Cl)cc1OCC(=O)O (stereo not given),–,inactive: 29.7%
C=CCOc1ccc(C(=O)c2ccccc2)c(OCC(=O)NC2(C#N)CCCC2)c1,"inconclusive: 10.4 µM [inhibitor, single point]",–
O=C(Cn1ncc2c(=O)oc3ccccc3c21)N1CCN(C(=O)c2ccco2)CC1,"inconclusive: 0.465 µM [inhibitor, full curve, poor fit]",–
Cc1cccc2cc(C#N)c(SCC(=O)NCC3CCCO3)nc12 (stereo not given),"inconclusive: 18.5 µM [inhibitor, single point]",–
CCCCCC(=O)O[C@]1(C(C)=O)CC[C@H]2[C@@H]3CCC4=CC(=O)CC[C@]4(C)[C@H]3CC[C@@]21C,active: 0.828 µM,–
CCCNC1=C(C)C(=O)C2=C(C1=O)C(COC(N)=O)[C@]1(OC)C3NC3CN21 (stereo not given in full),active: 0.185 µM,–
CCC(NC(=O)C(C)NC)C(=O)N1CCCC1C(=O)NC1CCCc2ccccc21 (stereo not given),"inconclusive: 11.7 µM [inhibitor, partial curve, poor fit]",–
O=C1CCC(=O)N1Cc1c(Cl)cccc1Cl,–,inactive: 3.15%
Oc1cc2c(cc1O)CN(C(=S)NCCc1ccc(Cl)cc1)CCC2,"inconclusive: 11.7 µM [inhibitor, single point]",–
CCCN(CC(=O)Nc1ccccc1C)C(=O)COc1c(Cl)cccc1Cl,"inconclusive: 18.5 µM [inhibitor, single point]",–
CN(C)S(=O)(=O)c1ccc(NC=O)cc1,–,inactive: -4.88%
O=C(CN(c1cccc(C(F)(F)F)c1)S(=O)(=O)c1ccc(Cl)c([N+](=O)[O-])c1)NCc1ccccc1,"inconclusive: 10.4 µM [inhibitor, single point]",–
COc1cccc(-c2nc(NCc3ccccc3)c3ccccc3n2)c1O,"inconclusive: 11.7 µM [inhibitor, partial curve]",–
COc1cc(Cl)c(C)cc1NC(=O)Cc1ccc(OC)c(OC)c1,"inconclusive: 4.15 µM [inhibitor, single point]",–
CC(NC(=O)c1ccccc1C(=O)O)c1ccc(-n2ccnc2)cc1 (stereo not given),"inconclusive: 4.15 µM [inhibitor, single point]",–
CC(C)N(Cc1nc(-c2ccc(Cl)cc2)no1)Cc1nccn1C,"inconclusive: 3.29 µM [inhibitor, single point]",–
O=C(COC(=O)c1ccc(Cl)c(S(=O)(=O)N2CCN(c3ccc(F)cc3)CC2)c1)Nc1cccc(Cl)c1,"inconclusive: 18.5 µM [inhibitor, single point]",–
CCCCC(=O)Nc1ccc(NC(=O)c2ccccc2[N+](=O)[O-])cc1OC,"inconclusive: 0.465 µM [inhibitor, partial curve, poor fit]",–
C/C(=N\NC(=O)CN1CCN(Cc2ccccc2)CC1)c1cccs1,–,inactive: 42.9%

Structure (SMILES),Potency,"activity change, negative = inhibition"
COc1ccc(NC(=O)C(NC(=O)CNC(C)=O)c2ccc(C)cc2)cc1 (stereo not given),"inconclusive: 18.5 µM [inhibitor, partial curve, poor fit]",–
CCCCNCCCOc1cc(Cl)ccc1Cl,active: 6.57 µM,–
N#C/C(=C\c1cccnc1)C(=O)Nc1ccc(C(=O)O)cc1,–,inactive: -22.4%
CC1=C(C#N)C(=O)NC(C)(C)C1,"inconclusive: 9.28 µM [inhibitor, single point]",–
O=P(Cc1ccccn1)(c1ccccc1)c1ccccc1,"inconclusive: 0.0029 µM [inhibitor, full curve, poor fit]",–
CC(OC(=O)c1ccc(NS(=O)(=O)c2cccs2)cc1)C(=O)N(C)C1CCCCC1 (stereo not given),–,inactive: -20.9%
CCCN1C(=O)c2ccccc2NC1c1ccc(Cl)cc1 (stereo not given),–,inactive: 19.8%
COc1ccc(N2CCN(C(=O)c3ccc(S(=O)(=O)N4CCOCC4)cc3)CC2)cc1,"inconclusive: 3.7 µM [inhibitor, partial curve, poor fit]",–
Cc1ccnc2nc(C(=O)OCCOc3ccc(F)cc3)nn12,"inconclusive: 4.15 µM [inhibitor, single point]",–
COc1ccc(CNCCCSc2ncccn2)cc1OC,"inconclusive: 16.5 µM [inhibitor, partial curve, poor fit]",–
CC(C)(C)[C@@H]1CCC(=O)N(CC[C@H](Sc2ccccc2)c2ccccc2)CC1,"inconclusive: 0.738 µM [inhibitor, full curve]",–
Cc1ccc(-n2c(O)c(C=NCc3ccccn3)c3ccccc3c2=O)cc1,–,inactive: 10.5%
COC(=O)C1C(O)C(C)C(O)C(C)(O)/C=C\C=C(/C)C(=O)Nc2c(C)c(OC(C)=O)c3c(c2O)C(=O)C(C)=C2OCOC(=C23)/C(C)=C/C(C)(O)C(O)C(C)C1O (stereo not given),"inconclusive: 0.262 µM [inhibitor, partial curve, poor fit]",–
Cc1cccc(C)c1OCCN1C(=O)NC(C)(c2ccccc2)C1=O (stereo not given),"inconclusive: 0.0657 µM [inhibitor, full curve, poor fit]",–
OCCN1CCN(c2nc(-c3ccccc3)c3cc(Cl)ccc3n2)CC1,"inconclusive: 13.1 µM [inhibitor, single point]",–
COC(=O)C1=C(c2ccc(C(C)=O)cc2)C[C@@H]2CC[C@H]1N2C,–,inactive: 12.1%
O=C(CN1C(=O)C2C3CC(C(Br)C3Br)C2C1=O)N1CCN(Cc2ccccc2)CC1 (stereo not given),–,inactive: -19.8%
Cc1ccc(N/N=C2\CS(=O)(=O)N(C)c3ccsc32)cc1,"inconclusive: 18.5 µM [inhibitor, single point]",–
COc1cc(C#Cc2c(-c3cncn3C)n(C)c3ccc(-c4ccc5[nH]ccc5c4)cc23)cc(OC)c1,active: 0.828 µM,–
Nc1c(-c2ccccc2)sc2ccc3ccccc3[n+]12,"inconclusive: 18.5 µM [inhibitor, single point]",–
NC(=O)NC(=O)CSc1nnc(-c2ccc(Cl)cc2)n1CC1CCCO1 (stereo not given),–,inactive: 3.43%
COc1ccc(C(=O)CSc2nc(C)cc(=O)[nH]2)cc1C,–,inactive: -28.2%
CN(CC(=O)NC1CCCc2ccccc21)S(=O)(=O)c1cccs1 (stereo not given),"inconclusive: 16.5 µM [inhibitor, partial curve, poor fit]",–
CCN(Cc1ccncc1)C(=O)CCc1ccccc1,active: 13.1 µM,–

# 17 of the compounds above, tab-delimited.
Structure (SMILES)	Potency	activity change, negative = inhibition
CCCCC(=O)Nc1ccc(NC(=O)c2ccccc2[N+](=O)[O-])cc1OC	inconclusive: 0.465 µM [inhibitor, partial curve, poor fit]	–
C/C(=N\NC(=O)CN1CCN(Cc2ccccc2)CC1)c1cccs1	–	inactive: 42.9%
COc1ccc(NC(=O)C(NC(=O)CNC(C)=O)c2ccc(C)cc2)cc1 (stereo not given)	inconclusive: 18.5 µM [inhibitor, partial curve, poor fit]	–
CCCCNCCCOc1cc(Cl)ccc1Cl	active: 6.57 µM	–
N#C/C(=C\c1cccnc1)C(=O)Nc1ccc(C(=O)O)cc1	–	inactive: -22.4%
CC1=C(C#N)C(=O)NC(C)(C)C1	inconclusive: 9.28 µM [inhibitor, single point]	–
O=P(Cc1ccccn1)(c1ccccc1)c1ccccc1	inconclusive: 0.0029 µM [inhibitor, full curve, poor fit]	–
CC(OC(=O)c1ccc(NS(=O)(=O)c2cccs2)cc1)C(=O)N(C)C1CCCCC1 (stereo not given)	–	inactive: -20.9%
CCCN1C(=O)c2ccccc2NC1c1ccc(Cl)cc1 (stereo not given)	–	inactive: 19.8%
COc1ccc(N2CCN(C(=O)c3ccc(S(=O)(=O)N4CCOCC4)cc3)CC2)cc1	inconclusive: 3.7 µM [inhibitor, partial curve, poor fit]	–
Cc1ccnc2nc(C(=O)OCCOc3ccc(F)cc3)nn12	inconclusive: 4.15 µM [inhibitor, single point]	–
COc1ccc(CNCCCSc2ncccn2)cc1OC	inconclusive: 16.5 µM [inhibitor, partial curve, poor fit]	–
CC(C)(C)[C@@H]1CCC(=O)N(CC[C@H](Sc2ccccc2)c2ccccc2)CC1	inconclusive: 0.738 µM [inhibitor, full curve]	–
Cc1ccc(-n2c(O)c(C=NCc3ccccn3)c3ccccc3c2=O)cc1	–	inactive: 10.5%
COC(=O)C1C(O)C(C)C(O)C(C)(O)/C=C\C=C(/C)C(=O)Nc2c(C)c(OC(C)=O)c3c(c2O)C(=O)C(C)=C2OCOC(=C23)/C(C)=C/C(C)(O)C(O)C(C)C1O (stereo not given)	inconclusive: 0.262 µM [inhibitor, partial curve, poor fit]	–
Cc1cccc(C)c1OCCN1C(=O)NC(C)(c2ccccc2)C1=O (stereo not given)	inconclusive: 0.0657 µM [inhibitor, full curve, poor fit]	–
OCCN1CCN(c2nc(-c3ccccc3)c3cc(Cl)ccc3n2)CC1	inconclusive: 13.1 µM [inhibitor, single point]	–

# Additional entries.

Structure (SMILES),Potency,"activity change, negative = inhibition"
Cc1cccc(Nc2nc(N)c([N+](=O)[O-])c(NCc3ccco3)n2)c1,"inconclusive: 18.5 µM [inhibitor, single point]",–
O=C(CCN1CCCC1)Nc1ccccc1,"inconclusive: 0.165 µM [inhibitor, full curve, poor fit]",–
Cc1cccc(NC(=O)C2(C)CC3c4ccccc4C2c2ccccc23)c1C (stereo not given),"inconclusive: 18.5 µM [inhibitor, single point]",–
COc1cc(Cl)ccc1OCc1cc(C(=O)N(C)Cc2nnc(C)o2)no1,–,inactive: -25.2%
CCOC(=O)C1CCCN(C(=O)c2cc(-c3ccccc3)nc3ccccc23)C1 (stereo not given),"inconclusive: 18.5 µM [inhibitor, single point]",–
CC1CC(C)(C)NC(=S)O1 (stereo not given),inactive,–
COc1ccc(CNC(=O)c2ccc(CNc3c(NC4CCCCC4)c(=O)c3=O)cc2)cc1,"inconclusive: 18.5 µM [inhibitor, single point]",–
O=C(NCC1CCCO1)c1cc2c(=O)[nH]c3ccccc3c2s1 (stereo not given),–,inactive: -10.7%
O=C(C[n+]1cc(Br)cc(Br)c1)c1cccc([N+](=O)[O-])c1,"inconclusive: 4.15 µM [inhibitor, single point]",–
O=C1N(Cc2cccnc2)C[C@@H]2C[C@@H](c3cccc(OCc4ccccc4)c3)N3CCC[C@@]123,"inconclusive: 6.57 µM [inhibitor, partial curve, poor fit]",–
O=C(NCc1ccccc1Cl)C(=O)c1cn(CC(=O)N2CCOCC2)c2ccccc12,"inconclusive: 13.1 µM [inhibitor, single point]",–
COc1ccc(-c2cn3ccccc3n2)cc1,–,inactive: -9.7%
C=CCn1c(SCc2nc3cc(C(F)(F)F)ccc3c(=O)[nH]2)nc2sc(CC)cc2c1=O,–,inactive: -2.16%
CC(C)Sc1nc2c(c(=O)n(C)c(=O)n2C)n1Cc1ccc(Cl)cc1,"inconclusive: 7.38 µM [inhibitor, partial curve, poor fit]",–
CCCCNC(=O)N1CCCC(C(=O)c2cc(C)c(OC)c(C)c2)C1 (stereo not given),–,inactive: 30.3%
CC#CC(=O)N1CCC(n2nccc2NC(=O)c2ccc3c(c2)OCO3)CC1,"inconclusive: 18.5 µM [inhibitor, single point]",–
Cc1cc(OCCOCCN(C)CCO)cc(C)c1Cl,"inconclusive: 10.4 µM [inhibitor, single point]",–
Cc1nc(N)c(C#N)c(-c2ccc3c(c2)OCO3)c1C,"inconclusive: 18.5 µM [inhibitor, single point]",–
Cc1cc(NC(=O)COC(=O)c2ccccc2[N+](=O)[O-])no1,–,inactive: 34.2%
O=C(NC1CC1)c1nc(Cn2cc([N+](=O)[O-])cn2)no1,–,inactive: -19.8%
O=C(c1ccc(S(=O)(=O)Nc2ccccc2F)cc1)N1CCN(c2ccccc2O)CC1,"inconclusive: 13.1 µM [inhibitor, partial curve, poor fit]",–
N=c1oc2ccccc2cc1C(=O)NC1CCCCCC1,–,inactive: 45.1%
